Results reported in the supplement of paper PMC5355238.
Counter-ions that a name gives are not always drawn. This is one part of the list. Most entries show no effect beyond the scatter of the controls.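 Using flow cytometry, the assay measures the median γH2AX antibody signal in S-phase Reh cells (a human leukemia line). Each score is the number of standard deviations from the median difference of paired plate sets. Candidate hits scored above 2.5; compounds scoring below -2 lowered MK1775-induced damage.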

System: Reh
Assay: Z' of S-phase gammaH2AX difference (drug + MK1775 minus drug alone) (Z-score); higher = stronger synergistic S-phase DNA damage with MK1775
Conditions: MK1775 concentration 400 nM; first compound 10 µM; 4 h

| SMILES | Z' of S-phase gammaH2AX difference (Z-score) |
| --- | --- |
| C[N+]1(C)C2CCC1CC(OC(=O)c1c[nH]c3ccccc13)C2 (stereo not given) [3-Tropanylindole-3-carboxylate methiodide] + C=CCn1c(=O)c2cnc(Nc3ccc(N4CCN(C)CC4)cc3)nc2n1-c1cccc(C(C)(C)O)n1 [MK1775] | inactive: -1.18 |
| CC(O)C(C)OC(=O)[C@@H]1C[C@@H]2c3cccc4c3c(cn4C(C)C)C[C@H]2N(C)C1 (stereo not given in full) [LY-53,857 maleate] + C=CCn1c(=O)c2cnc(Nc3ccc(N4CCN(C)CC4)cc3)nc2n1-c1cccc(C(C)(C)O)n1 [MK1775] | inactive: 0.383 |
| CCCC[N+]1(C)[C@@H]2C[C@@H](OC(=O)[C@H](CO)c3ccccc3)C[C@H]1[C@@H]1O[C@@H]12 (single isomer, unassigned; (-)) [(-)-Scopolamine,n-Butyl-, bromide] + C=CCn1c(=O)c2cnc(Nc3ccc(N4CCN(C)CC4)cc3)nc2n1-c1cccc(C(C)(C)O)n1 [MK1775] | inactive: 0.129 |
| COc1ccc(OC)c(C(O)C(C)N)c1 (stereo not given) [Methoxamine hydrochloride] + C=CCn1c(=O)c2cnc(Nc3ccc(N4CCN(C)CC4)cc3)nc2n1-c1cccc(C(C)(C)O)n1 [MK1775] | inactive: -0.218 |
| O=S1(=O)N(CCN2CC=C(c3c[nH]c4cc(F)ccc34)CC2)c2cccc3c2N1CCC3 + C=CCn1c(=O)c2cnc(Nc3ccc(N4CCN(C)CC4)cc3)nc2n1-c1cccc(C(C)(C)O)n1 [MK1775] | inactive: -0.197 |
| N#CC(C#N)=Cc1ccc([N+](=O)[O-])c(O)c1 [Tyrphostin AG 126] + C=CCn1c(=O)c2cnc(Nc3ccc(N4CCN(C)CC4)cc3)nc2n1-c1cccc(C(C)(C)O)n1 [MK1775] | inactive: -1.15 |
| NCCCNCCSP(=O)(O)O [Amifostine] + C=CCn1c(=O)c2cnc(Nc3ccc(N4CCN(C)CC4)cc3)nc2n1-c1cccc(C(C)(C)O)n1 [MK1775] | inactive: 0.0301 |
| Clc1ccc(N2CCN(Cc3c[nH]c4ncccc34)CC2)cc1 [L-745,870 hydrochloride] + C=CCn1c(=O)c2cnc(Nc3ccc(N4CCN(C)CC4)cc3)nc2n1-c1cccc(C(C)(C)O)n1 [MK1775] | inactive: 0.335 |
| CCn1cnc2c(Nc3cccc(Cl)c3)nc(N[C@@H]3CCCC[C@@H]3N)nc21 + C=CCn1c(=O)c2cnc(Nc3ccc(N4CCN(C)CC4)cc3)nc2n1-c1cccc(C(C)(C)O)n1 [MK1775] | inactive: -2.08 |
| NCCc1c[nH]c2ccc(C(N)=O)cc12 [5-Carboxamidotryptamine maleate] + C=CCn1c(=O)c2cnc(Nc3ccc(N4CCN(C)CC4)cc3)nc2n1-c1cccc(C(C)(C)O)n1 [MK1775] | inactive: 0.378 |
| CCCCCCCCC(=O)NCc1ccc(O)c(OC)c1 [N-Vanillylnonanamide] + C=CCn1c(=O)c2cnc(Nc3ccc(N4CCN(C)CC4)cc3)nc2n1-c1cccc(C(C)(C)O)n1 [MK1775] | inactive: -2.44 |
| CC1=C2C[C@H]3[C@@H](CC=C4C[C@@H](O)CC[C@@]43C)[C@@H]2CC[C@]12O[C@@H]1C[C@H](C)CN[C@H]1[C@H]2C [Cyclopamine] + C=CCn1c(=O)c2cnc(Nc3ccc(N4CCN(C)CC4)cc3)nc2n1-c1cccc(C(C)(C)O)n1 [MK1775] | inactive: 0.137 |
| CC(=O)NCCc1c[nH]c2ccccc12 [N-Acetyltryptamine] + C=CCn1c(=O)c2cnc(Nc3ccc(N4CCN(C)CC4)cc3)nc2n1-c1cccc(C(C)(C)O)n1 [MK1775] | inactive: 0.1 |
| C=CCN1CC[C@]23CCCC[C@H]2[C@H]1Cc1ccc(O)cc13 [Levallorphan tartrate] + C=CCn1c(=O)c2cnc(Nc3ccc(N4CCN(C)CC4)cc3)nc2n1-c1cccc(C(C)(C)O)n1 [MK1775] | inactive: 0.878 |
| Cc1cc2c(C(C)C)c(O)c(O)c(C=O)c2c(O)c1-c1c(C)cc2c(C(C)C)c(O)c(O)c(C=O)c2c1O [Gossypol] + C=CCn1c(=O)c2cnc(Nc3ccc(N4CCN(C)CC4)cc3)nc2n1-c1cccc(C(C)(C)O)n1 [MK1775] | inactive: -0.0894 |
| O=c1[nH]c2ccccc2n1C1CCN(CCCC(c2ccc(F)cc2)c2ccc(F)cc2)CC1 [Pimozide] + C=CCn1c(=O)c2cnc(Nc3ccc(N4CCN(C)CC4)cc3)nc2n1-c1cccc(C(C)(C)O)n1 [MK1775] | inactive: 0.752 |
| CN(C)C(=O)Oc1ccc[n+](C)c1 [Pyridostigmine bromide] + C=CCn1c(=O)c2cnc(Nc3ccc(N4CCN(C)CC4)cc3)nc2n1-c1cccc(C(C)(C)O)n1 [MK1775] | inactive: -0.403 |
| CCc1c(C(=O)OC)ncc2[nH]c3cc(OC)c(OC)cc3c12 [Methyl 6,7-dimethoxy-4-ethyl-beta-carboline-3-carboxylate] + C=CCn1c(=O)c2cnc(Nc3ccc(N4CCN(C)CC4)cc3)nc2n1-c1cccc(C(C)(C)O)n1 [MK1775] | inactive: -0.216 |
| CC(N)c1cccc(Cl)c1Cl (stereo not drawn) [(?)-2,3-Dichloro-alpha-methylbenzylamine hydrochloride] + C=CCn1c(=O)c2cnc(Nc3ccc(N4CCN(C)CC4)cc3)nc2n1-c1cccc(C(C)(C)O)n1 [MK1775] | inactive: -0.843 |
| Cc1o[nH]c(=O)c1CC(N)C(=O)O (stereo not given) [(?)-AMPA hydrobromide] + C=CCn1c(=O)c2cnc(Nc3ccc(N4CCN(C)CC4)cc3)nc2n1-c1cccc(C(C)(C)O)n1 [MK1775] | inactive: 0.25 |

A few values from the results shown:
Z' of S-phase gammaH2AX difference (Z-score) with NCCCNCCSP(=O)(O)O [Amifostine] + C=CCn1c(=O)c2cnc(Nc3ccc(N4CCN(C)CC4)cc3)nc2n1-c1cccc(C(C)(C)O)n1 [MK1775] is entered as inactive: 0.0301
Z' of S-phase gammaH2AX difference (Z-score) with Clc1ccc(N2CCN(Cc3c[nH]c4ncccc34)CC2)cc1 [L-745,870 hydrochloride] + C=CCn1c(=O)c2cnc(Nc3ccc(N4CCN(C)CC4)cc3)nc2n1-c1cccc(C(C)(C)O)n1 [MK1775] is entered as inactive: 0.335

The results go on:

| SMILES | Z' of S-phase gammaH2AX difference (Z-score) |
| --- | --- |
| CCN(CCCl)Cc1ccccc1Br [DSP-4 hydrochloride] + C=CCn1c(=O)c2cnc(Nc3ccc(N4CCN(C)CC4)cc3)nc2n1-c1cccc(C(C)(C)O)n1 [MK1775] | inactive: -0.207 |
| CNC(=O)Oc1ccc2c(c1)[C@]1(C)CCN(C)[C@@H]1N2C [(-)-Physostigmine] + C=CCn1c(=O)c2cnc(Nc3ccc(N4CCN(C)CC4)cc3)nc2n1-c1cccc(C(C)(C)O)n1 [MK1775] | inactive: 0.537 |
| CN(C)C(=O)Oc1cccc([N+](C)(C)C)c1 [Neostigmine bromide] + C=CCn1c(=O)c2cnc(Nc3ccc(N4CCN(C)CC4)cc3)nc2n1-c1cccc(C(C)(C)O)n1 [MK1775] | inactive: 1.63 |
| CNC(=O)OCC[N+](C)(C)C [Methylcarbamylcholine chloride] + C=CCn1c(=O)c2cnc(Nc3ccc(N4CCN(C)CC4)cc3)nc2n1-c1cccc(C(C)(C)O)n1 [MK1775] | inactive: -0.0582 |
| O=C(CCCN1CCC2(CC1)C(=O)N(CCc1ccc(N=C=S)cc1)CN2c1ccccc1)c1ccc(F)cc1 [N-(p-Isothiocyanatophenethyl)spiperone hydrochloride] + C=CCn1c(=O)c2cnc(Nc3ccc(N4CCN(C)CC4)cc3)nc2n1-c1cccc(C(C)(C)O)n1 [MK1775] | inactive: 0.155 |
| CP(=O)(O)CCCN + C=CCn1c(=O)c2cnc(Nc3ccc(N4CCN(C)CC4)cc3)nc2n1-c1cccc(C(C)(C)O)n1 [MK1775] | inactive: -0.404 |
| CNCC(O)c1ccc(O)cc1 (stereo not given) [(?)-Synephrine] + C=CCn1c(=O)c2cnc(Nc3ccc(N4CCN(C)CC4)cc3)nc2n1-c1cccc(C(C)(C)O)n1 [MK1775] | inactive: -0.117 |
| O=C(Cc1ccc(Cl)c(Cl)c1)N1CCCCC1CN1CCCC1 (stereo not given) + C=CCn1c(=O)c2cnc(Nc3ccc(N4CCN(C)CC4)cc3)nc2n1-c1cccc(C(C)(C)O)n1 [MK1775] | inactive: -0.241 |
| C#CCOC(=O)C1=CCCN(C)C1 [Arecaidine propargyl ester hydrobromide] + C=CCn1c(=O)c2cnc(Nc3ccc(N4CCN(C)CC4)cc3)nc2n1-c1cccc(C(C)(C)O)n1 [MK1775] | inactive: -0.661 |
| c1ccc(CCCN2CCN(CCOC(c3ccccc3)c3ccccc3)CC2)cc1 + C=CCn1c(=O)c2cnc(Nc3ccc(N4CCN(C)CC4)cc3)nc2n1-c1cccc(C(C)(C)O)n1 [MK1775] | inactive: -0.0413 |
| CC(C)C[C@H]1C(=O)N2CCC[C@H]2[C@]2(O)O[C@](NC(=O)[C@@H]3C=C4c5cccc6[nH]c(Br)c(c56)C[C@H]4N(C)C3)(C(C)C)C(=O)N12 [(+)-Bromocriptine methanesulfonate] + C=CCn1c(=O)c2cnc(Nc3ccc(N4CCN(C)CC4)cc3)nc2n1-c1cccc(C(C)(C)O)n1 [MK1775] | inactive: 0.207 |
| O=C(OC1CCN(CCCl)CC1)C(c1ccccc1)c1ccccc1 [4-Diphenylacetoxy-N-(2-chloroethyl)piperidine hydrochloride] + C=CCn1c(=O)c2cnc(Nc3ccc(N4CCN(C)CC4)cc3)nc2n1-c1cccc(C(C)(C)O)n1 [MK1775] | inactive: 0.746 |
| C=CCN1CC[C@]23c4c5ccc(O)c4O[C@H]2/C(=N/N=C2\CC[C@@]4(O)[C@H]6Cc7ccc(O)c8c7[C@@]4(CCN6CC=C)[C@H]2O8)CC[C@@]3(O)[C@H]1C5 [Naloxonazine dihydrochloride] + C=CCn1c(=O)c2cnc(Nc3ccc(N4CCN(C)CC4)cc3)nc2n1-c1cccc(C(C)(C)O)n1 [MK1775] | inactive: -0.718 |
| CN1[C@@H]2CC[C@H]1C[C@@H](OC(=O)C(CO)c1ccccc1)C2 (stereo not given in full) [Atropine sulfate] + C=CCn1c(=O)c2cnc(Nc3ccc(N4CCN(C)CC4)cc3)nc2n1-c1cccc(C(C)(C)O)n1 [MK1775] | inactive: 0.143 |
| c1ccc(C2CC2)c(OCC2=NCCN2)c1 [Cirazoline hydrochloride] + C=CCn1c(=O)c2cnc(Nc3ccc(N4CCN(C)CC4)cc3)nc2n1-c1cccc(C(C)(C)O)n1 [MK1775] | inactive: 0.157 |
| CN1[C@@H]2CC[C@H]1C[C@@H](OC(c1ccccc1)c1ccccc1N)C2 (stereo not given in full) [Aminobenztropine] + C=CCn1c(=O)c2cnc(Nc3ccc(N4CCN(C)CC4)cc3)nc2n1-c1cccc(C(C)(C)O)n1 [MK1775] | inactive: -0.134 |
| C[C@]12CCC(=O)C(O)=C1CC[C@@H]1[C@@H]2CC[C@]2(C)C(=O)CC[C@@H]12 [Formestane] + C=CCn1c(=O)c2cnc(Nc3ccc(N4CCN(C)CC4)cc3)nc2n1-c1cccc(C(C)(C)O)n1 [MK1775] | inactive: -0.0303 |
| Nc1ncnc2c1ncn2C1OC2COP(O)(=S)O[C@@H]2[C@@H]1O (stereo not given in full) [Rp-cAMPS triethylamine] + C=CCn1c(=O)c2cnc(Nc3ccc(N4CCN(C)CC4)cc3)nc2n1-c1cccc(C(C)(C)O)n1 [MK1775] | inactive: -0.347 |
| NCC(CP(=O)(O)O)c1ccc(Cl)cc1 (stereo not given) [Phaclofen] + C=CCn1c(=O)c2cnc(Nc3ccc(N4CCN(C)CC4)cc3)nc2n1-c1cccc(C(C)(C)O)n1 [MK1775] | inactive: 1.78 |
| N[C@@H](Cn1cc(I)c(=O)[nH]c1=O)C(=O)O [S-5-Iodowillardiine] + C=CCn1c(=O)c2cnc(Nc3ccc(N4CCN(C)CC4)cc3)nc2n1-c1cccc(C(C)(C)O)n1 [MK1775] | inactive: 0.289 |
